Test: USP IV flow-through cell dissolution of films in SDS solution
Format: physicochemical
Conditions: SDS media; similarity and difference factors

COc1ccc2cc([C@H](C)C(=O)O)ccc2c1 [NPX, naproxen]
dissolution profiles of films with vs without SDS: statistically similar dissolution profiles with and without SDS
